From publication PMC7819943, “Rice protein-binding microarrays: a tool to detect cis-acting elements near promoter regions in rice” come the findings set out here.

Some of the results follow.

The target in this test is T1, OsSMF1 (Oryza sativa, UniProt Q6ZLB0 1-436).
T1 sequence: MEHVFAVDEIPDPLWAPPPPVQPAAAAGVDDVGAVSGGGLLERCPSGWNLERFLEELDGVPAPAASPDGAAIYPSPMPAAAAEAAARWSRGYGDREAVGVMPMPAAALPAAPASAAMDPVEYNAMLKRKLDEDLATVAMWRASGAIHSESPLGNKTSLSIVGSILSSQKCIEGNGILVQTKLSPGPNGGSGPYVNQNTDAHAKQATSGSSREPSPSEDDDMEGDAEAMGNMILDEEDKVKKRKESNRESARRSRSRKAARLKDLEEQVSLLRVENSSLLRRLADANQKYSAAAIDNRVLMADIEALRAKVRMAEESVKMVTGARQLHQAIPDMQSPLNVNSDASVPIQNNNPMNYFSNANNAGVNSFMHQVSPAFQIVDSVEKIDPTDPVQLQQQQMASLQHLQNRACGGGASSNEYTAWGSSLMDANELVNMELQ
The test can be described thus: protein-binding microarray (RPBM); PBS, 2% BSA, 51.3 ng/ul salmon testes DNA, 50 uM zinc acetate, 200 nM TF, 25 C, 1 h; high values mean tight binding. To be noted: protein: recombinant; tags: N-terminal polyhistidine and DsRed monomer fusion (pET32a); chain copies: 2; label: CyDye5-dUTP incorporated in the synthesized complementary strand; 3' TTTTT single-stranded linker to array surface; dsDNA, one strand shown. A digest of the protocol:
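The binding signal for each feature is its fluorescence intensity in arbitrary units. An Axon 4000B scanner was used to read a custom Agilent array that had been made double-stranded with Cy5-dUTP primer extension, blocked with 2% BSA, incubated at 25 °C for 1 h with 200 nM protein in PBS, 2% BSA, salmon testes DNA and 50 µM zinc acetate, and washed. The protein was an N-terminal polyhistidine–DsRed transcription factor fusion from E. coli BL21-CodonPlus, purified on Ni–NTA.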
With “GGGAGATCGAGTCAGACACGTACTACTGCACTAGAGCAAACGGAGTCACCTAGTGCAG”, the binding signal is 5570 fluorescence intensity (a.u.).

Regarding “CGAAGCCGTAGTCCGCCACGGAGGCGGTCCTCGCCGACGCCGGAGTCACCTAGTGCAG”, the binding signal was 3890 fluorescence intensity (a.u.).

“CGGAGAGAGATCGCCCGCCACGTCACCACGCCACACCCCACGGAGTCACCTAGTGCAG”: the binding signal was 38300 fluorescence intensity (a.u.).

For the sequence “CTTGTTACTCACAGTCTCCGTCTCTCCATCAAAACAACCACGGAGTCACCTAGTGCAG”, the binding signal was 3320 fluorescence intensity (a.u.).

Consider “AAACGGAAGCTCACCTTCCCACCGCCACGTCCCGGCTCCCCGGAGTCACCTAGTGCAG”, for which the binding signal was 8770 fluorescence intensity (a.u.).

As for “ATCCCCAATATCAGTAGGTGAGCATCATCTAAATTGCATTCGGAGTCACCTAGTGCAG”, the binding signal is 3390 fluorescence intensity (a.u.).

Consider “CCGAGTGACGATGCAGCTGAGTCGGAGCGCAGCACGACTTCGGAGTCACCTAGTGCAG”, for which the binding signal is 4290 fluorescence intensity (a.u.).

For the sequence “GCGGCTGACGAGGAAGACGACGACACGAGTCACGGGAGTGCGGAGTCACCTAGTGCAG”, the binding signal is 4210 fluorescence intensity (a.u.).

In the case of “CTCGGATTCTCCGGCGTGGAGAGTTTGGGCAGAACACCAGCGGAGTCACCTAGTGCAG”, the binding signal was 3470 fluorescence intensity (a.u.).

In the case of “ATTGGATGCATGTATTACATTTATTAGATTAATCCAAATTCGGAGTCACCTAGTGCAG”, the binding signal is 30100 fluorescence intensity (a.u.).

Consider “AAGCCAACCAACAAGACGAGGCGAACGTCACGCACGCACGCGGAGTCACCTAGTGCAG”, for which the binding signal is 3500 fluorescence intensity (a.u.).

With “ATCTGAACATAACATATGCCAAAATTTACAGCTTGAAGTTCGGAGTCACCTAGTGCAG”, the binding signal was 19000 fluorescence intensity (a.u.).

For “GGCCTTCCCCATCCCCATCTCTCATCAGCCGCAAACTGCTCGGAGTCACCTAGTGCAG”, the binding signal was 32700 fluorescence intensity (a.u.).

Consider “TTTTGTTTCACCATTTCGGCTCACTCCATAGGACATGGAACGGAGTCACCTAGTGCAG”, for which the binding signal is 3520 fluorescence intensity (a.u.).

As for “CTTGGTCTGTGTTTCAGGCTAAAATATGAAGATCAAACTTCGGAGTCACCTAGTGCAG”, the binding signal is 6470 fluorescence intensity (a.u.).

Regarding “AGGAATCTTGCCTGACGAAACTTGCCTGAGTCAGGCGTAGCGGAGTCACCTAGTGCAG”, the binding signal is 5150 fluorescence intensity (a.u.).

For the sequence “AATAAACCATGGTGTTTGTATTGGTGTGTTGGTGACTACGCGGAGTCACCTAGTGCAG”, the binding signal was 3880 fluorescence intensity (a.u.).

Regarding “GTAGGTGACATGTGTGGTGTCACACTGACTCAGCCATCACCGGAGTCACCTAGTGCAG”, the binding signal is 10600 fluorescence intensity (a.u.).

For “TTTAATAAAATCACATATTTGTTAATACTTTTATATATTTCGGAGTCACCTAGTGCAG”, the binding signal was 23800 fluorescence intensity (a.u.).

On to “AGTTATCTACATACCATCTAAATATGACGTGGAAAGATTACGGAGTCACCTAGTGCAG”, for which the binding signal was 14600 fluorescence intensity (a.u.).

Consider “TTACTACTAGCTTTGTCATGTACTGGCATTTGCATCCGTACGGAGTCACCTAGTGCAG”, for which the binding signal was 3900 fluorescence intensity (a.u.).

With “ATTCAACAGTCACCACCAGCTAATCCCTTTCAACTTGCCACGGAGTCACCTAGTGCAG”, the binding signal is 4450 fluorescence intensity (a.u.).

For “AAAGGAGAGGCAGAAGCAGCGTCATCGACGACGACGCCATCGGAGTCACCTAGTGCAG”, the binding signal was 4440 fluorescence intensity (a.u.).
